Where “and” joins values, the source holds several entries; their conditions need not be identical. Equal values may be shown once. Read-outs that look alike come from different tables or passages of the source. Not every detail of the peptide structures is certain; ends, links or a residue may be inferred.
Key:
[1] = system: Klebsiella aerogenes NCTC11228 - antibiotic-susceptible type strain; design: unit not given beside the values; conditions: K. aerogenes NCTC11228
[2] = system: Streptococcus pneumoniae - penicillin-intermediate clinical isolate; conditions: S. pneumoniae penicillin-intermediate
[3] = system: Staphylococcus epidermidis methicillin-resistant clinical isolate; design: unit not given beside the values; conditions: S. epidermidis methicillin-resistant isolate
[4] = system: Enterobacter sp - multi-drug resistant clinical isolate; design: unit not given beside the values
[5] = system: Streptococcus constellatus - antibiotic-susceptible clinical isolate; design: unit not given beside the values; conditions: S. constellatus antibiotic-susceptible
[6] = system: Candida albicans ATCC24433 - reference strain; design: unit not given beside the values; conditions: C. albicans ATCC24433
[7] = system: Group G Streptococcus - antibiotic-susceptible clinical isolate; design: unit not given beside the values
[8] = system: MU50 Staphylococcus aureus (MRSA) - VISA type strain; design: unit not given beside the values; conditions: MU50 S. aureus (MRSA) VISA type strain
[9] = system: Enterobacter sp - antibiotic-susceptible clinical isolate; design: unit not given beside the values
[10] = system: Staphylococcus aureus - methicillin-resistant clinical isolate; design: unit not given beside the values; conditions: S. aureus methicillin-resistant isolate
[11] = system: Streptococcus pyogenes - Macrolide (M-type) resistance clinical isolate; design: unit not given beside the values; conditions: S. pyogenes macrolide (M-type) resistance
[12] = system: Staphylococcus aureus ATCC 43300 - methicillin-resistant control strain; design: unit not given beside the values; conditions: S. aureus ATCC 43300 methicillin-resistant
[13] = system: Escherichia coli ATCC25922 - antibiotic-susceptible type strain; design: unit not given beside the values; conditions: for MIC (repeat control strain): E. coli ATCC 25922
[14] = system: Cryptococcus neoformans - G.R. Micro collection; design: unit not given beside the values; conditions: C. neoformans
[15] = system: Listeria monocytogenes - antibiotic-susceptible clinical isolate; design: unit not given beside the values; conditions: L. monocytogenes antibiotic-susceptible
[16] = system: Trichophyton mentagrophytes - G.R. Micro collection; design: unit not given beside the values; conditions: T. mentagrophytes
[17] = system: Candida parapsilosis ATCC90018 - reference strain; design: unit not given beside the values; conditions: C. parapsilosis ATCC90018
[18] = system: Streptococcus pneumoniae - ATCC 49619 antibiotic-susceptible control strain; conditions: S. pneumoniae ATCC 49619
[19] = system: Streptococcus agalactiae - macrolide-resistant clinical isolate; design: unit not given beside the values; conditions: S. agalactiae macrolide-resistant
[20] = system: Group C Streptococcus - macrolide-resistant clinical isolate; design: unit not given beside the values
[21] = system: EMRSA1 Staphylococcus aureus (MRSA) - SSCmec type 3; design: unit not given beside the values; conditions: EMRSA1 SSCmec type 3
[22] = system: Escherichia coli - multi-drug resistant clinical isolate; design: unit not given beside the values; conditions: E. coli multi-drug resistant isolate
[23] = system: Enterococcus faecalis - ATCC 29212 antibiotic-susceptible control strain; design: unit not given beside the values; conditions: E. faecalis ATCC 29212
[24] = system: Pseudomonas aeruginosa ATCC27853 - antibiotic-susceptible type strain; design: unit not given beside the values; conditions: for MIC (repeat control strain): P. aeruginosa ATCC 27853
[25] = system: Streptococcus pneumoniae - penicillin-resistant clinical isolate; conditions: S. pneumoniae penicillin-resistant
[26] = system: EMRSA3 Staphylococcus aureus (MRSA) - SSCmec type 1; design: unit not given beside the values; conditions: EMRSA3 SSCmec type 1
[27] = system: Candida albicans ATCC90028 - reference strain; design: unit not given beside the values; conditions: C. albicans ATCC90028
[28] = system: Stenotrophomonas maltophilia - antibiotic-susceptible clinical isolate; design: unit not given beside the values; conditions: S. maltophilia antibiotic-susceptible isolate
[29] = system: Staphylococcus aureus ATCC 25923 - antibiotic-susceptible control strain; design: unit not given beside the values; conditions: S. aureus ATCC 25923
[30] = system: Enterococcus faecalis vancomycin-resistant (VanB) clinical isolate; design: unit not given beside the values; conditions: E. faecalis vancomycin-resistant (VanB)
[31] = system: Staphylococcus haemolyticus - antibiotic susceptible clinical isolate; conditions: S. haemolyticus antibiotic susceptible isolate
[32] = system: Corynebacterium jeikeium - antibiotic-susceptible clinical isolate; conditions: C. jeikeium antibiotic-susceptible
[33] = system: Streptococcus sanguis - antibiotic-susceptible clinical isolate; design: unit not given beside the values; conditions: S. sanguis antibiotic-susceptible

N=C(N)NCCC[C@H](NC(=O)[C@H](Cc1ccc(-c2ccc3ccccc3c2)cc1)NC(=O)[C@@H](N)CCCNC(=N)N)C(=O)NCCc1ccccc1 [Compound 1]
MIC [1]: 32
MIC [2]: 32
MIC [3]: 2
MIC [4]: 64
MIC [5]: 64
MIC [6]: 2
MIC [7]: 32
MIC [8]: 4
MIC [9]: 32
MIC [10]: 4
MIC [11]: 32
MIC [12]: 4
MIC ([13]; E. coli ATCC25922): 32
MIC (repeat control strain) ([13]; plate type Fresh MHB): 16
MIC (repeat control strain) ([13]; plate type Frozen MHB): 32
MIC [14]: 4
MIC [15]: 32
MIC [16]: 16
MIC [17]: 4
MIC [18]: 32
MIC [19]: 32
MIC [20]: 64
MIC [21]: 8
MIC [22]: 32
MIC [23]: 4
MIC (repeat control strain) ([23]; plate type Fresh MHB): 4
MIC (repeat control strain) ([23]; plate type Frozen MHB): 8
MIC ([24]; P. aeruginosa ATCC27853): 16
MIC (repeat control strain) ([24]; plate type Fresh MHB): 8
MIC (repeat control strain) ([24]; plate type Frozen MHB): 16 and 32
MIC [25]: 32
MIC [26]: 4
MIC [27]: 2
MIC [28]: 64
MIC [29]: 4
MIC [30]: 16
MIC [31]: 4
MIC [32]: 32
MIC [33]: 64

— US20240277890A1, “ANTIMICROBIAL ARTICLES COMPRISING POLYURETHANE” (Amicoat AS, priority 2021, published 2024)
